Negatives hold for the conditions tested. For at least one entry, the source does not settle the construct or the ends of the probe.
Molecular target: HaWRI1_DBD (6-His-TRX-WRI1_DBD) (Helianthus annuus (CAS-6 line)) (UniProt X2BZR1)
Experiment: EMSA
Conditions: 20 mM Tris-HCl pH 8.0, 250 mM NaCl, 2 mM MgCl2, 1% glycerol, 1 mM DTT, 1 mg/mL BSA, 30 min room temperature, gels at 4 °C, DIG EMSA plus 0.05 µg/µL polydIdC, recombinant protein, residues 51-229, protein details: N-terminal 6xHis-thioredoxin fusion, probe letters rebuilt from the primers and the genome

CACACGAGGATTGATTGGGCGTAAGAGGGACTCACCTCTTAGGTGAGCACCCCTTACACCCTAAGAAGGTTCATCGTGAACACCATCATCGTCCCTCCCTCCCACTGTCCTCCTCGTTGATATCGCCTAACATTTAACACTACTCTACTCTATATCTTCG (double strand) [BCCP-16g (-136)]
binding result: binds

CACAATACAATATGTCGTTCCCGTCACATCGCGGTAATAAAAAAAATTAAACCACTACATATATAACTAAGTACTAGTTCCCCCAATTTCAGCACGAAGTACTTCATGGCAAAAACGTGAATAACTGCAACTCCAGTGTCAATCTCCTGCAAGCAACACACACTATACATAACCCACTCCGTACCCTCACCAAAACCTTCACACCTAACCTTTTCCGGCGACTCCACGGCGGCGATACACCGATCACTATGCTCTCCAGAGGTGTTCCGACCGCCACCGCCACCGCCTACAATGACGTA (double strand) [f1-deltaAWbox]
binding result (polydIdC, label: digoxigenin): no binding

AGTGGGTTTTTGGGTGTTTATGTTCGATAATTCTTATGCGATTTGAGGCGGAGGGACTTGAGCCAGCTATGATCCGTTTGGCAGGTGAAGATTGGGTGAGCTTATGAGCCATGGGTGGGTTCGAGCTTGTTTTGTTTTCACACCAGTCAGGGTTAGAAATGTGTGGTAAC (double strand) [αCT-15g (-995)]
binding result: no binding

GTAAGAGCATGAGTGGCTTGGCGAACGTGGTGTGGACGGAGACGAGTGTGTGGGCCCTGTGCCAGCCCAGTGAACGCCAAACGAGCACACAACAAGCGAAGTGGGGTGAAAAAATAAATTATCGCCCATAGTTTAATAGTAGTATCAGTAACCCCTGACCGGTTGATTTCTCGATGTCAAAATGAACCTAATATTTTACCTATAAATACCTAACACACTCTCATCGTCTCCTCCGCCGATTATTCTCGAATTCTTGTTATCAGATCAGATCATATCAGATCTATCC (double strand) [ACP2-14g (-65)]
binding result: no binding

GGGGTTAGTTAGGGTATATGGGAAAAATGTGGTCACACTGATTGACACTCCAACGCTTTTCAGCTTAGGTTATATCGCCGATCAGTCGGAGCTTCCAAGACCAACACACAGTCTTCATATATCAATCACTTCAATTTCATTTACACAATTGCTCCTCTTCGTTACTCTCTCTCCTCATTTTCTCTCTCTAGAACGCTCATGGCTGCCGCAGCATCTGCTTCTTTCACCGGATCGGTTTTCAAATCCAACCGTATCTCAACTAACTCCGC (double strand) [KAR1 mut A/G]
binding result: no binding

CAATCGAAAAGACTATAAAGATCTGAAATTGAACACTTTGGGAGATGGGATTTTATGATCGACCAGTTTGAGACCAAGAGAGAGAGAGAGAGAGAGAGATTTATTAGGGGGAAATGAGGGGTAGCATAGAGAAGATCGTCAGTGGGTTTTTGGGTGTTTATGTTCGATAATTCTTATGCGATTTGAGGCGGAGGGACTTGAGCCAGCTATGATCCGTTTGGCAGGTGAAGATTGGGTGAGCTTATGAG (double strand) [αCT-15g (-870)]
binding result: binds

TGTTACTTAACACGAGACAATAGGCTTTTAAATGTTTAATCCTGAACTAACCAATATCTTGTTCGCAAATACTTAAAATGGCCCAGTGTCCCAACCCAACCACCTTACTAATATGTCAAAAGTGCGTTAGTTTGGGGTTAGACCAACGAACTCGGATGGCATGGCCTATGATCTTGGGGCGATGTTTACACTGCACTCATTCCCTCGTCTTCTCCGCCTCACTCTGCAACTCCACTCTCTCTCTCTCTCTACAATTCACCCGTAACCTGCAACTCCAGTGTCATCCTCCCTAATTCAACCGAACGCT (double strand) [DHLAT-12g (-105)]
binding result: binds

CGATGAGAGTGTGTTAGGTATTTATAGGTAAAATATTAGGTTCATTTTGACATCGAGAAATCCGCCGGTCAGGGGTTACTGATACTACTATTAAACTATGGGCGATAATTTATTTTTTCACCCCACTTCGCTTGTTGTGTGCTCGTTTGGCGTTCACTGGGCTGGCACAGGGCCCACACACTCGTCTCCGTCCACACCACGTTCGCCAAGCCACTCATGCTCTTAC (double strand) [ACP2-14g (-124)]
binding result: binds

TCTTAGGGTGTAAGGGGTGCTCACCTAAGAGGTGAGTCCCTCTTACGCCCAATCAATCCTCGTGTGTCACGTCAACTCCTCTCTTAAACTTCTCTAACACCCTAAATTGATGGCGGCACTCCCCTCTATGATGACTTGGTTTTTATTAAAAAAAGAAAAAAGAAAAGTTTTGATTGGTCCACTCATCCTCTCTCCTCCTTCTCTCCTCCC (double strand) [BCCP-16g (-252)]
binding result: binds
